Earlier results in patent publication US8642012B2, “Methods of treatment using ammonia-scavenging drugs” (Hyperion Therapeutics, Inc., priority 2008, dated 2014).
Some of these results come from one statement about several compounds together.

Details: individual UCD patients; Brusilow 1991, Brusilow and Finkelstien 1993; cited from earlier work

Compound: O=C(O)Cc1ccccc1 [PAA, phenylacetic acid]
- Fraction excreted in the urine as PAGN: 80-90%
